Results of single-concentration screens

Sequences of proteins named here, by UniProt entry; tags and fusion partners are left off. Residues count along the entry.
UniProt Q8IDJ8, 1-583: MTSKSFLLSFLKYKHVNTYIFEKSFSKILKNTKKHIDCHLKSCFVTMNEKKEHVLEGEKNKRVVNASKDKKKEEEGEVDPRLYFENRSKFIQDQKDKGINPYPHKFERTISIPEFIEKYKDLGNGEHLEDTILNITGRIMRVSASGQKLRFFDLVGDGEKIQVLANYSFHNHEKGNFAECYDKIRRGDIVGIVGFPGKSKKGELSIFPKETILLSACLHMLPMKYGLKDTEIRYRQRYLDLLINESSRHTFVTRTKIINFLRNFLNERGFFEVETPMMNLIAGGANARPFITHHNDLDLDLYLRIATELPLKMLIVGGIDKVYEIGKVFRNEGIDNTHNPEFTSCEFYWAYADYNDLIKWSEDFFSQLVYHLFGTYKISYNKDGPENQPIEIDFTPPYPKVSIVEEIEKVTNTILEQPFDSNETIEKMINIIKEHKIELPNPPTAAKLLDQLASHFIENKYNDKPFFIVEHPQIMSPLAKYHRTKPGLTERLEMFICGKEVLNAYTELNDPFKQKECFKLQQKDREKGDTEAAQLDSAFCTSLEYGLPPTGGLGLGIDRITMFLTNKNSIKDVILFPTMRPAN

Each number is a percent effect as filed. How 0% and 100% were set is not recorded. Most values in the screen are low, and negative values occur. The compounds are a random part of those screened.

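Enzyme assay of the cytosolic lysyl-tRNA synthetase in 384-well plates, read by luminescence. Target: Lysine-tRNA ligase, Plasmodium falciparum 3D7 (UniProt Q8IDJ8). Compounds at 30 µM. Direction is inferred from only a few compounds that gave an IC50; most scored high, so higher reads as stronger inhibition. Size under these conditions: about 69,000 compounds, about 49 of them at 50% or above in at least one test.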

structure	effect
Cc1noc(C2CCN(C(=O)CCCNc3ncccn3)CC2)n1	-0.6894%
Cc1cc(C)cc(N(C)S(=O)(=O)c2cc3c(c(C(=O)O)c2)OCCO3)c1	2.625%
COc1cc(CNC(C)Cn2cccn2)cc(OC)c1 (stereo not drawn)	2.082%
COc1ccc(F)cc1S(=O)(=O)N1CCC(Oc2ccc(Cl)cn2)CC1	-1.256%
CCCC(=O)N1C[C@@H]2CCN(c3cnccn3)C[C@@H]2C1	4.024%
Cn1cc(N2CC3(COCCN(Cc4ccsc4)C3)OCC2=O)cn1 (stereo not drawn)	-4.868%
CC(C)Oc1cccc(C(O)CNC(=O)Nc2cccs2)c1 (stereo not drawn)	10.24%
Cc1ccc(C(=O)NCc2ccnc(C3CCCOC3)n2)s1 (stereo not drawn)	-2.27%
Cc1ccc(CN(Cc2ccccn2)C(=O)CCC2CCCN(C)C2)s1 (stereo not drawn)	1.767%
CO[C@@H]1CC[C@@H](NC(=O)CCc2ccc(Cl)cc2)[C@H]1O	0.8031%
CC(Nc1cccc(CN2CCOC2=O)c1)C(=O)NC(N)=O (stereo not drawn)	1.946%
CC(C)c1n[nH]c(C2CN(C(=O)c3cccc4cn[nH]c34)CCO2)n1 (stereo not drawn)	-0.4548%
O=C(CCc1cc(Br)cs1)NCCCn1ccnc1	7.934%
CN1N=C(C(=O)N2CCCC(n3ccnc3)C2)CCC1=O (stereo not drawn)	-1.616%
c1cc(C2CCN(c3ncnc4c3CCNCC4)CC2)ccn1	0.4146%
CN(C)c1nc2c(c(N(C)C)n1)CCN(C(=O)CN1CCC(O)CC1)C2	7.202%
COCCn1cc(NC(=O)C(C)CCc2ccccc2F)ccc1=O (stereo not drawn)	34.18%
C=C(C)COc1ccccc1C(=O)N(C)C(C)c1c(C)n[nH]c1C (stereo not drawn)	6.858%
NC(=O)C(CNC(=O)COCC(F)(F)F)Cc1ccc(F)cc1 (stereo not drawn)	3.447%
COc1ccccc1OCCCc1cc(C#N)ccn1	3.1%
Cc1nnc2n1CCN(Cc1csc(-c3ncccn3)n1)C2	-2.308%
Cc1cc(CNC(=O)Cc2cccs2)ccc1S(C)(=O)=O	-1.901%
Cc1cccnc1CSCCCNS(C)(=O)=O	-0.04924%
O=C(NCc1cc(=O)n2c(n1)CN(CC1CC1)CCC2)c1ccsc1	-0.8834%
Cc1nc(CNC2CCc3nc(C(C)C)nn3C2)oc1C (stereo not drawn)	1.391%
Cn1ccc(CS(=O)(=O)Cc2cccc(F)c2)cc1=O	2.329%
Cc1noc(C)c1CN(C)C(=O)CN1CC(c2ccccc2)CC1=O (stereo not drawn)	3.389%
COc1ccnc(N2CCN(C(=O)c3ccc(Cl)o3)CC2)n1	0.9951%
CN(C)S(=O)(=O)N1CCC2(COCc3cnc(-c4ccccc4)nc32)C1 (stereo not drawn)	-1.258%
NC(=O)c1ccc(NC(=O)N2CCN(c3cccs3)CC2)c(F)c1	-2.102%
Cc1cc(NC(=O)NCc2ccccc2OC(F)F)n(C)n1	7.597%
CC(NC(=O)NCCCN1CCCC1=O)c1nncn1C (stereo not drawn)	1.832%
CC(NC(=O)NC1CCN(CC2CCCC2)CC1)c1nccs1 (stereo not drawn)	5.573%
CC(=O)N(Cc1ncc(C)o1)C1CCN(CCc2cnn(C)c2)C1 (stereo not drawn)	5.345%
CC(=O)N1CCOC(CNC(=O)c2cccc(CCC(C)(C)O)c2)C1 (stereo not drawn)	-5.566%
OC(CNc1ccncn1)CN1CCCCCC1 (stereo not drawn)	4.006%
O=C(c1ccc2c(c1)OCO2)N1C[C@H](OCC2CC2)[C@H]2COC[C@H]21	1.999%
CCOCCCNC(=O)CN(c1ccc(C)c(C)c1)S(C)(=O)=O	5.415%
O=C(NCc1ccc(Br)cc1F)C1(O)CCSCC1	2.911%
Cn1nnnc1SC1CCCN(c2cccc(F)c2)C1=O (stereo not drawn)	-1.375%
Cc1cnccc1-c1cc(NCCO)nc2[nH]ccc12	5.24%
COc1ccc(C(=O)Nc2ccc3c(c2)C(=O)NC3)cc1Br	4.806%
O=C(C1CCOCC1)N1C[C@@H]2[C@@H](C1)OCC(=O)N2CC1CC1	3.644%
COCC1CN(Cc2ccccn2)Cc2nn(C)cc21 (stereo not drawn)	2.381%
O=C(NC1CC1)[C@H]1C[C@H]2OCC[C@H]2N(Cc2ccco2)C1	-0.7421%
CCn1nc2c(cc1=O)CN(Cc1nc(C)c3ccccc3n1)CC2	10%
Cc1cc(C(=O)NCC(F)(F)F)c2c(C3CCNCC3)noc2n1	0.747%
COc1c(F)cc(-c2cn(CCn3c(C)cc(C)nc3=O)nn2)cc1Cl	26.39%
NC(=O)c1cccc(CC2CCN(C(=O)CCc3cccc(F)c3)C2)c1 (stereo not drawn)	2.635%
Cc1noc(C)c1-c1nc(NCCN(C)C)ncc1-c1cnccn1	0.3763%
Cc1cc(C)n(CC(C)NC(=O)C2(c3ccccc3F)CC2)n1 (stereo not drawn)	7.367%
CCCn1nnnc1CSc1nccn1CC	5.891%
CNC(=O)c1cccc(CC2COCCN(Cc3ccsc3)C2)n1 (stereo not drawn)	1.541%
CCOCCCNS(=O)(=O)c1ccc2c(c1)NC(=O)C(C)O2 (stereo not drawn)	-0.8297%
CCn1cnnc1CN(C)C(=O)c1cc(COc2cccc(F)c2)[nH]n1	-5.22%
CCCC(C#N)NC(=O)CCCOc1cccc(F)c1 (stereo not drawn)	1.487%
O=C(NC1COC2(CCN(Cc3ccccn3)CC2)C1)c1ccccn1 (stereo not drawn)	4.874%
CC(C)CCNC(=O)C(c1cccc(F)c1)N(C)C (stereo not drawn)	1.679%
O=C(NC1(c2nc(C3CC3)no2)CCCCC1)c1cccnc1O	4.975%
Cn1ncc2c(N3CCN(C(=O)c4ccsc4)CC3)ncnc21	6.489%
Cc1ccc(NC2COC3(CCN(CC(C)C)CC3)C2)nn1 (stereo not drawn)	1.274%
CCc1ncc(CN2CCC(Oc3ccccc3OC)CC2)cn1	5.753%
CN(Cc1ccco1)C[C@H]1OC[C@@H]2CCN(Cc3ccsc3)C[C@@H]21	1.797%
O=C(NC1CCCC1)c1cnn2c(-c3ccco3)ccnc12	2.235%
CC(C)(C)c1n[nH]c(C2CN(C(=O)c3cc(C4CC4)[nH]n3)CCO2)n1 (stereo not drawn)	2.3%
Cc1nn(C2CCS(=O)(=O)C2)c(O)c1Cc1ccccc1 (stereo not drawn)	7.055%
O=C(O)c1ccc(OC2CCOCC2)cc1	4.314%
Cc1nonc1C1CCCN1C(=O)c1cc2n(n1)CCCNC2 (stereo not drawn)	6.809%
CC(C)NC(=O)N1CCN2C(=O)N(Cc3ccc(F)cc3)C[C@H]2C1	-2.385%
CN(Cc1ccc(OC(F)F)cc1)C(=O)CS(=O)(=O)c1ccc(Cl)cc1	1.341%

The first 9 entries again:

{"structure": "Cc1noc(C2CCN(C(=O)CCCNc3ncccn3)CC2)n1", "effect": -0.6894}
{"structure": "Cc1cc(C)cc(N(C)S(=O)(=O)c2cc3c(c(C(=O)O)c2)OCCO3)c1", "effect": 2.625}
{"structure": "COc1cc(CNC(C)Cn2cccn2)cc(OC)c1", "stereo": "stereo not drawn", "effect": 2.082}
{"structure": "COc1ccc(F)cc1S(=O)(=O)N1CCC(Oc2ccc(Cl)cn2)CC1", "effect": -1.256}
{"structure": "CCCC(=O)N1C[C@@H]2CCN(c3cnccn3)C[C@@H]2C1", "effect": 4.024}
{"structure": "Cn1cc(N2CC3(COCCN(Cc4ccsc4)C3)OCC2=O)cn1", "stereo": "stereo not drawn", "effect": -4.868}
{"structure": "CC(C)Oc1cccc(C(O)CNC(=O)Nc2cccs2)c1", "stereo": "stereo not drawn", "effect": 10.24}
{"structure": "Cc1ccc(C(=O)NCc2ccnc(C3CCCOC3)n2)s1", "stereo": "stereo not drawn", "effect": -2.27}
{"structure": "Cc1ccc(CN(Cc2ccccn2)C(=O)CCC2CCCN(C)C2)s1", "stereo": "stereo not drawn", "effect": 1.767}

Measurements from “University of Dundee, Small-Polar-MMV Screening Library” (2021), ChEMBL document CHEMBL3988442.